Data set [1] deals with T1, DNA2 C136S-C396S-C402S (human) (UniProt P51530).
T1 sequence (looked up): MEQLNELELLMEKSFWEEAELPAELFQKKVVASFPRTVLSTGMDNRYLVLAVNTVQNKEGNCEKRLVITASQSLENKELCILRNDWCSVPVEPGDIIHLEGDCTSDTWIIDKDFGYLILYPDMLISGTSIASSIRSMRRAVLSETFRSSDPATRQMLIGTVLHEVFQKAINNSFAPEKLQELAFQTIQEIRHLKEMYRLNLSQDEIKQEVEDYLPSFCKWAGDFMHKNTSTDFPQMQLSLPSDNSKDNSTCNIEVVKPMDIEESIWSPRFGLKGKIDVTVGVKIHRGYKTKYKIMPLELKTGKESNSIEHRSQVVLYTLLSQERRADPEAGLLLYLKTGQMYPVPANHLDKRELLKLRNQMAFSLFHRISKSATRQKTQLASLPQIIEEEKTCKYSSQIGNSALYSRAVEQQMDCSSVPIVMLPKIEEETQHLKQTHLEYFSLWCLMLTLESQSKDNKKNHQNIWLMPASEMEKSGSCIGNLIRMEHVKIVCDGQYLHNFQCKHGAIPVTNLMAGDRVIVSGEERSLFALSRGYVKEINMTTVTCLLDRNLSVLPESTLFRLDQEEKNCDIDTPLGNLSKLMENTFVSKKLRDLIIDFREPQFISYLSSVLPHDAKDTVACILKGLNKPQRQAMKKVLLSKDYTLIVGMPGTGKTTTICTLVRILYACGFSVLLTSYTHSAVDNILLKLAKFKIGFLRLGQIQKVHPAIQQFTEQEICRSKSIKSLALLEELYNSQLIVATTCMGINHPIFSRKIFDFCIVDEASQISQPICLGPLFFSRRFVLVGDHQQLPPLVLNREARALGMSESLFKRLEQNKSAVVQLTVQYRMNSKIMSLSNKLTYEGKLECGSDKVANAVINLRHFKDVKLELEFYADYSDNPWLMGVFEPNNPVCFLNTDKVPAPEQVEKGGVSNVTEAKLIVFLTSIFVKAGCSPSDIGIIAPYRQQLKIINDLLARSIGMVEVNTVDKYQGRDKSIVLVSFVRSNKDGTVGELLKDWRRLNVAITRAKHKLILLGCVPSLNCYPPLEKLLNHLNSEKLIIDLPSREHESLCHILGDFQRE
The data set can be described thus: EMSA. The settings on record: 100 nM protein, H2O2; EMSA: 25 mM Tris-HCl pH 8.0, 0.1 mg/ml BSA, 5 mM EDTA, with or without 1 mM DTT, 30 min on ice; 4-5 nM FAM-DNA or 1 nM 32P-DNA; recombinant protein; residues 1-1060; protein details: His6 and FLAG; label: FAM (strand and end not shown); counted as no binding.

A further data set concerns the target T2, mDna2 (mouse) (UniProt Q6ZQJ5).
T2 sequence (looked up): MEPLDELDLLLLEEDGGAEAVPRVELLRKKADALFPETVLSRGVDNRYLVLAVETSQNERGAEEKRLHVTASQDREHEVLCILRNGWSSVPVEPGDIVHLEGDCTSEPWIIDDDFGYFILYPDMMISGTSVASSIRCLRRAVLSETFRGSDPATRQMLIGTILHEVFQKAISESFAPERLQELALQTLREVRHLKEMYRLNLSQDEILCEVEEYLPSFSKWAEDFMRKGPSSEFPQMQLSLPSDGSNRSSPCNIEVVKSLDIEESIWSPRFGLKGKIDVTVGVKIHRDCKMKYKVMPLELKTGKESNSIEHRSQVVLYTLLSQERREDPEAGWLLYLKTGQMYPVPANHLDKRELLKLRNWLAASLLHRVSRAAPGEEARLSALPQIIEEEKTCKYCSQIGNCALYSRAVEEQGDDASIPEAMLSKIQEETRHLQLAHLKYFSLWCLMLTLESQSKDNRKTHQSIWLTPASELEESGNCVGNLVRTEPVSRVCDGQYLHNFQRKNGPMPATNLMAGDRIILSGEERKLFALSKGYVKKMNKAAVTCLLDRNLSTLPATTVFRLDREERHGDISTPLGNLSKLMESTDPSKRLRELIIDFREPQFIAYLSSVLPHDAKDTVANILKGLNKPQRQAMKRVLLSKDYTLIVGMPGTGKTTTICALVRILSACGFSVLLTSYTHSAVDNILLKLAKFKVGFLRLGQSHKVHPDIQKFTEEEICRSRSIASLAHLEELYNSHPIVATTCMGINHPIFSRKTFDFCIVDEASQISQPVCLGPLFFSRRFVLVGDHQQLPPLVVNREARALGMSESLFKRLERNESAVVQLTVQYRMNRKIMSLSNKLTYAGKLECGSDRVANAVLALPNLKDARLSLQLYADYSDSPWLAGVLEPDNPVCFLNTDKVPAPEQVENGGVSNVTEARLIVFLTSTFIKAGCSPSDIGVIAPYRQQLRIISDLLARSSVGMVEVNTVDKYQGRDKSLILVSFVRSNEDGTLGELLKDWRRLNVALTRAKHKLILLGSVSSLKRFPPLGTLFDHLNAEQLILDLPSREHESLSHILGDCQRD
The data set can be described thus: EMSA. The settings on record: 20 h air exposure, loses its ability to bind; EMSA: 25 mM Tris-HCl pH 8.0, 0.1 mg/ml BSA, 5 mM EDTA, with or without 1 mM DTT, 30 min on ice; 4-5 nM FAM-DNA or 1 nM 32P-DNA; recombinant protein; residues 1-1062; protein details: N-terminal His6 (TEV); label: FAM (strand and end not shown).

The record followed here is paper PMC7311471, “The iron–sulphur cluster in human DNA2 is required for all biochemical activities of DNA2”.

For some assays here: Negatives hold for the conditions tested. Where a protein sequence is shown, tags need not be part of it.

“ATCGATAGTCGGATCCTCTAGACAGCTCCATGTAGCAAGGCACTGGTAGAATTCGGCAGCGT / GACGCTGCCGAATTCTACCAGTGCCTTGCTAGGACATCTTTGCCCACCTGCAGGTTCACCC / TGGGTGAACCTGCAGGTGGGCAAAGATGTCC [5' flap (FAM)]”: in data set [1], the binding signal came out at 0 % bound. Also, the binding result in the data set with mDna2 (mouse) is given as “no binding”.
